Results are given in words; binding and its absence hold for the method and conditions named. Binding seen in cells or lysates may run through a third protein. Some results given as binding are weak or reduced against the parent protein; the word gives no strength.
Experiments:
[1] = target: T1, PKK (protein kinase C-associated kinase), mouse, wild type (mouse) (UniProt Q9ERK0); assay: co-immunoprecipitation (legend of FIG. 22)
T1 sequence: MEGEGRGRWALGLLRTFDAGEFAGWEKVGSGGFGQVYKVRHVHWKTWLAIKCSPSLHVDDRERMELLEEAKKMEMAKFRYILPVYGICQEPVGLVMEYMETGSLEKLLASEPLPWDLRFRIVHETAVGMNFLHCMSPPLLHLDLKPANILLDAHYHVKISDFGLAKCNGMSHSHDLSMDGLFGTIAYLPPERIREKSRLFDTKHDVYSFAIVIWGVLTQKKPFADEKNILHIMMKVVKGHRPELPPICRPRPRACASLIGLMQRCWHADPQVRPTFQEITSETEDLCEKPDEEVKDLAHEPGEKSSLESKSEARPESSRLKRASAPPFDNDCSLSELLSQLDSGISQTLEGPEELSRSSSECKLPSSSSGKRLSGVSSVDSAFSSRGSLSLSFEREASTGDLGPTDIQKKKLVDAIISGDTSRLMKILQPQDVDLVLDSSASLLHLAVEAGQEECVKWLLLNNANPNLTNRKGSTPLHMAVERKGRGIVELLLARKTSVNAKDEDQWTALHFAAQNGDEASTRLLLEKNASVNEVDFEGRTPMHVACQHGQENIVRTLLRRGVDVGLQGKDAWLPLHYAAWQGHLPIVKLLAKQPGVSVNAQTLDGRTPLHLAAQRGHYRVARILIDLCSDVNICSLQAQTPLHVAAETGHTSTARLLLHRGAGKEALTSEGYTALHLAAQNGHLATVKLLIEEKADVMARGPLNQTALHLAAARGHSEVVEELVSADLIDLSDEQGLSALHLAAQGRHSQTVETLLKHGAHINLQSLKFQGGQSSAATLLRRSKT

Amino acid sequences for entries named in this document (tags omitted). A change or cut given only in a name is not applied to a line headed by its entry.
UniProt Q8NFD2: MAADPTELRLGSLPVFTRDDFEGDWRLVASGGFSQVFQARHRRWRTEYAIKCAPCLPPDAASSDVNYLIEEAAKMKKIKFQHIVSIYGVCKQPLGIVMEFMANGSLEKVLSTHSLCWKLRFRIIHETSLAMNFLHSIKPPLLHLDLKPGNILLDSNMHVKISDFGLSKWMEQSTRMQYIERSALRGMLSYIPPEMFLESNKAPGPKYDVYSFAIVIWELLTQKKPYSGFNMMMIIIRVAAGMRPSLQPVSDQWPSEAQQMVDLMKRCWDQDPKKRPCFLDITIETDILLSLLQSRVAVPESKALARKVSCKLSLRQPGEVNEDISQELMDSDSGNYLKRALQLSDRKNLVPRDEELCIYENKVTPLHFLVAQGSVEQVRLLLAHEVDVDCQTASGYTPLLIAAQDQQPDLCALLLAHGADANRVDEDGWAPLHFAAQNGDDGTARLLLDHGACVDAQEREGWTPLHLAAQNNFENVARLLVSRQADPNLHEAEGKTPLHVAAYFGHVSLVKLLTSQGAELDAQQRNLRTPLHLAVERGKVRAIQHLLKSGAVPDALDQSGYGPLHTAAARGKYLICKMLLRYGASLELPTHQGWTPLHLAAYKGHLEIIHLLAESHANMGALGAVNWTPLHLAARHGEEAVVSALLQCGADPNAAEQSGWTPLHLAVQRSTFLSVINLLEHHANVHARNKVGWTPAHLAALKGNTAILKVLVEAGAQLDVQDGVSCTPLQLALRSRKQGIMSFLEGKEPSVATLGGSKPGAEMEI

[2] = target: T1, PKK (protein kinase C-associated kinase), mouse, wild type (mouse); assay: co-immunoprecipitation (summary sentence about the filing's own experiments)
[3] = target: T1, PKK (protein kinase C-associated kinase), mouse, wild type (mouse); assay: co-immunoprecipitation from transfected HEK293T cells (IP anti-Myc, blot anti-Flag)

Measured: binding

RICK3 (human RICK3, wild type) (from UniProt Q8NFD2 1-765) (enzyme)
binds: all assays above
